# Primary screen of a compound library

Protein sequences, listed by entry. Tags and fused reporters are not part of them.
UniProt E9BF75, entry or part of it: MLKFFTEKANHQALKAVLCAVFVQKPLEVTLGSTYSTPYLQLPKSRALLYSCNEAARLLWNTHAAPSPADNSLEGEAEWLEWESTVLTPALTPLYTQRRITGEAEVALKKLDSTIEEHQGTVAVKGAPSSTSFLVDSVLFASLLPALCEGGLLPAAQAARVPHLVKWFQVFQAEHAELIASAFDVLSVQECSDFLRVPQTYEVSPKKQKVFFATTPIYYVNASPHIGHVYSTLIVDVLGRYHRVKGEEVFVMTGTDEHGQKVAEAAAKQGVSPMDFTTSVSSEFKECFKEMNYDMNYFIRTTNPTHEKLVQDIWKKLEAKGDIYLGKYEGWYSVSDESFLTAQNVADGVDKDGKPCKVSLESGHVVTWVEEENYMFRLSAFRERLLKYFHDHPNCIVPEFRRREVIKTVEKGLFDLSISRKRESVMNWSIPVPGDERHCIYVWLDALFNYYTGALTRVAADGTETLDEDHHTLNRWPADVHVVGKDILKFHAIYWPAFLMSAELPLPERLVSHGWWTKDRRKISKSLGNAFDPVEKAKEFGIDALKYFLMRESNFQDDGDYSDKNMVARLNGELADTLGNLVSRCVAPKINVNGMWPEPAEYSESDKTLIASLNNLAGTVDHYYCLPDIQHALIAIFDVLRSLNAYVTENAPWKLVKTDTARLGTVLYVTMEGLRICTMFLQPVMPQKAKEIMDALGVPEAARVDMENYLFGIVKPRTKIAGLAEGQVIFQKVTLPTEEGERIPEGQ

Data taken from ChEMBL document CHEMBL3988442, “University of Dundee, Small-Polar-MMV Screening Library” (2021).

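Methionyl-tRNA synthetase (putative), Leishmania donovani (UniProt E9BF75). Primary screen of methionyl-tRNA synthetase; the read-out is not stated. The test concentration is not given. Values are per cent inhibition. About 68,000 compounds were tested under these conditions; 0.035% (about 24) showed 50% or more at least once.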

Results are percentages, as filed. The controls that fix the scale are not given in the record; negative values are as filed. The compounds are a random part of those screened.

| structure | inhibition |
|---|---|
| `O=C(O)c1nnn(-c2ccc(C(F)(F)F)cc2)c1-c1ccncc1` | 11.66% |
| `Cc1nc(C)c(C(=O)N2CCc3nnc(C4CCCN4C)n3CC2)s1` (centres undefined) | 22.33% |
| `Cc1ccc(C(C)(O)CNC(=O)c2scnc2C)o1` (centres undefined) | 17.38% |
| `c1cc(CNc2ccc(-c3nc(C4CC4)no3)cn2)no1` | 10.14% |
| `c1cc(-c2ccc3c(c2)CCC32CCN(c3nncs3)CC2)ccn1` | 26.88% |
| `c1ccc(NCc2cn3c(n2)CN(Cc2nccs2)CC3)nc1` | 16.61% |
| `O=C(c1cnc(NCC2CCCO2)c(Cl)c1)N1CCCCC1` (centres undefined) | 4.348% |
| `Cn1cnnc1-c1ccnc(NCc2ccc(Br)cc2)c1` | 23.39% |
| `CCOCCN1CCN(CC(=O)N2CCCC2)CC1C` (centres undefined) | 8.741% |
| `Cc1csc(N2CCCN(C(=O)c3occc3C)CC2)n1` | 22.83% |
| `COC1CCN(C(=O)Nc2cc(C(F)(F)F)c[nH]c2=O)CC1` | 9.091% |
| `CC(C)NC(=O)CN1CCC2(CC1)OCCO2` | 11.59% |
| `CC(Nc1cccc(CN2CCOC2=O)c1)C(=O)NC(=O)NC(C)(C)C` (centres undefined) | 11.72% |
| `COc1ccc(CN(C)C(=O)Cc2c(C)nn(C)c2C)cc1F` | 16.13% |
| `COCCN1CCC2(CC1)CCN(Cc1ccccn1)CC2` | 14.57% |
| `CCn1cc(NC(=O)NCC(c2ccc(OC)cc2)N(C)C)cn1` (centres undefined) | 16.94% |
| `CN1CCC(CN2CCC3(CCCN(Cc4ccoc4)C3)C2=O)CC1` (centres undefined) | 10.58% |
| `Cc1cccc(N(CC(=O)N2CCCCC2)Cc2nc(=O)[nH][nH]2)c1` | 7.617% |
| `c1csc(CN2CCC3(CC2)CCN(CC2CC2)CC3)n1` | 4.261% |
| `O=C(c1cc(F)cc(Cl)c1)N1CCN(CCO)[C@@H]2CS(=O)(=O)C[C@@H]21` | 3.308% |
| `CC(=O)N(C)CC(=O)Nc1cnc(-n2ccnc2C)nc1` | 1.242% |
| `NC(=O)CN1CCN(S(=O)(=O)N2CCCC2c2ccco2)CC1` (centres undefined) | 13.77% |
| `Cc1ccc(CNCC2Cn3nncc3CO2)o1` (centres undefined) | 16.1% |
| `COCCCN1CC2(CCN(C(=O)Cc3csc(C)n3)CC2)CC1=O` | 2.338% |
| `CNC(=O)c1ccc(C(=O)N2CCCC(n3ccnc3C)C2)cn1` (centres undefined) | 12.57% |
| `CN1CCC(NC(=O)Cc2csc(C(C)(C)C)n2)CC1` | 15.81% |
| `Cn1cc(C2CCCN2C(=O)CCCOc2ccccc2F)cn1` (centres undefined) | 5.028% |
| `Cc1nc(C)n(CC2CCCN(c3ccc(C#N)cn3)C2)n1` (centres undefined) | 13.13% |
| `Cc1nc2c(c(N(C)C)n1)CCN(C(=O)c1sccc1S(N)(=O)=O)C2` | 14.71% |
| `COC(=O)CNC(=O)c1nc(Cl)sc1C(C)C` | 10.19% |
| `COc1ccc([C@@H]2CN(C(=O)CCC(F)(F)F)C[C@H]2NC(C)=O)cc1` | 16.59% |
| `CCO[C@H]1CO[C@@]2(CCCN(Cc3nc(C)cs3)C2)C1` | 12.5% |
| `O=S(=O)(NCC1CCN(c2cnccn2)CC1)c1c(F)cccc1F` | 18.63% |
| `CNC(=O)[C@@H]1CCO[C@@H]2CCN(CCc3ccccc3)C[C@H]21` | 4.636% |
| `CCCc1noc(C2CCN(C(=O)C3CCCO3)CC2)n1` (centres undefined) | 5.995% |
| `Cc1noc(C)c1NS(=O)(=O)c1cc(Cl)c(Cl)c(C(=O)O)c1` | 9.749% |
| `CCc1nc(C2CCCN(C(=O)c3cccc4cn[nH]c34)C2)no1` (centres undefined) | 8.571% |
| `CN(Cc1ccccc1)c1cnn(CC2COCCO2)c(=O)c1` (centres undefined) | 18.77% |
| `CN(C)CCN1C(=O)CC[C@@H]2[C@H]1CCN2C(=O)c1ccc(C#N)cc1` | 17.39% |
| `CN(CCn1ccc2ccccc21)C(=O)CS(C)(=O)=O` | 3.495% |
| `O=C(NC1CCCCC1)N1CCC(N2Cc3ncccc3C2=O)CC1` | 17.08% |
| `Cn1cc(CN2C[C@@H]3OCCN(CC4CCCC4)[C@@H]3C2)cn1` | 9.278% |
| `CCCn1nnc(NCc2ccccc2OCc2ccc(Cl)cc2)n1` | -5.077% |
| `Cc1ccc(CN2CCC3(CCN(Cc4ccncc4)CC3)CC2)cc1` | 5.839% |
| `CC(C(=O)NCc1ccnc(N2CCN(C)CC2)c1)S(C)(=O)=O` (centres undefined) | 10.93% |
| `CNC(=O)C1CN(c2ccc(F)cc2)CCN1` (centres undefined) | 13.02% |
| `c1ccc(NCc2ccc(Cn3ccnc3)cc2)nc1` | 12.53% |
| `O=C(C1CCCCC1)N1CCCC2(CCN(c3cnccn3)CC2)C1` | 13.89% |
| `COc1ccc(-c2noc([C@@H]3C[C@@H](O)CN3C3CCCCC3)n2)cc1` | 7.119% |
| `CSc1ncccc1C(=O)NCc1ccc(CS(=O)(=O)NC(C)C)cc1` | 3.472% |
| `N#Cc1ccnc(N2CCN(CC(O)c3cccc(F)c3)CC2)c1` (centres undefined) | 13.01% |
| `Cc1ccc(S(C)(=O)=O)cc1NCC(=O)NCCC1=CCCCC1` | 7.062% |
| `COc1ccc(C(C)NC(=O)NCCc2ccc(C)nc2)c(OC)c1` (centres undefined) | 10.21% |
| `COCCN1CCC(NCc2ccc(Cl)cc2)C1` (centres undefined) | 15.91% |
| `N#Cc1ccc(CNCCc2cc(F)cc3c2OCOC3)cc1` | 12.04% |
| `Fc1cccc(-c2nc(CN3CCOC(Cn4cccn4)C3)co2)c1` (centres undefined) | 13.73% |
| `O=C(NC1(c2nnn(CC3CCCO3)n2)CCCC1)c1ccccc1` (centres undefined) | 5.865% |
| `CNS(=O)(=O)Cc1ccc(CNC(=O)c2ccc(C)[nH]c2=O)cc1` | 12.55% |
| `NC1CCCN(Cc2cccc(C(F)(F)F)c2)C1=O` (centres undefined) | 17.96% |
| `CCN(CC1CCCO1)S(=O)(=O)c1cc(NC(C)=O)ccc1C` (centres undefined) | 14.29% |
| `COc1cccc(CN(C)c2ncc(C(N)=O)cc2Cl)c1` | 13.17% |
| `CC1=C(CCN2CC[C@@H](N3CCC(O)CC3)[C@H](O)C2)C(C)(C)CCC1` | 10.2% |
| `CCNC(=O)[C@@H]1CCCN1C1(C(=O)NC)CCCCC1` | 8.791% |
| `c1cncc(O[C@H]2COCCN(Cc3c[nH]c4ccccc34)C2)c1` | 8.242% |
| `CC(=O)N1CCC(c2nccnc2Oc2ccccc2)CC1` | 10.62% |
| `Cc1cc(C2CCCN2C(=O)COc2ccc(CC#N)cc2)on1` (centres undefined) | 11.17% |
| `COc1ccc(CN(C(=O)C2CCOCC2)c2ccncc2)cc1` | 6.211% |
| `O=C(NCCc1c[nH]cn1)c1ccccc1C1CCNC1` (centres undefined) | 6.969% |
| `COc1cc(F)c(S(=O)(=O)N2c3ncccc3NC(=O)C2C)cc1OC` (centres undefined) | 6.767% |
| `COc1cc(C)c(C2CC(=O)NCc3nc4sccn4c32)cc1C` (centres undefined) | 5.025% |
| `CC(C)N1CCCC(C(=O)N2CCc3c(nc(CC4CC4)[nH]c3=O)C2)C1` (centres undefined) | -5.645% |
| `COCCNc1nc2c(c(NCc3cnc(C)cn3)n1)CCNCC2` | 11.69% |
| `CS(=O)(=O)c1ccc(CNC(=O)NCc2cc[nH]n2)cc1` | 10.64% |

Some entries from above, unchanged:

- N#Cc1ccnc(N2CCN(CC(O)c3cccc(F)c3)CC2)c1 (centres undefined) | 13.01%
- Cc1nc(C)n(CC2CCCN(c3ccc(C#N)cn3)C2)n1 (centres undefined) | 13.13%
- CC(Nc1cccc(CN2CCOC2=O)c1)C(=O)NC(=O)NC(C)(C)C (centres undefined) | 11.72%
- c1cncc(O[C@H]2COCCN(Cc3c[nH]c4ccccc34)C2)c1 | 8.242%
- CCN(CC1CCCO1)S(=O)(=O)c1cc(NC(C)=O)ccc1C (centres undefined) | 14.29%
- COc1ccc(-c2noc([C@@H]3C[C@@H](O)CN3C3CCCCC3)n2)cc1 | 7.119%
- NC1CCCN(Cc2cccc(C(F)(F)F)c2)C1=O (centres undefined) | 17.96%